PubChem BioAssay AID504793, Drosophila RNAi Screening Center | 2011

Assay: 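Whole-genome screen for parts of the DNA damage checkpoint at G2/M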 (primary screen)
System: Drosophila S2R+ cells
Knock-down reagent: long dsRNA against Drosophila genes, about 0.25 µg dsRNA per well
Time to read-out: 4 days of dsRNA, then 4 hours of drug before read-out
Treatment: doxorubicin 0.5 µM for 4 hours to cause double-strand breaks, in cells also given a low, harmless dose of dsRNA against nbs to sensitise the assay
Read-out: 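Per-well count of mitotic cells stained for phospho-histone H3 after doxorubicin exposure, used as mitotic index; counts are raw and not normalised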
Reading the numbers: mitotic cells: higher = more cells in mitosis, weaker G2 arrest
Hit rule: 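a call needs confirmation in secondary tests, with other dsRNAs and a check of mitotic timing without damage, not just a high primary count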
Meaning of the calls: active = confirmed in follow-up tests; inactive = not confirmed
The deposit covers about 23,000 reagents; this is an unselected part of those with a known target gene and a result. In the full data, 62 (0.27%) got an active call. 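Calls come from follow-up tests whose scores are not deposited, so confirmed genes may have low counts here; counts are not normalised per plate.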 The raw values are shown without normalisation.

CG15712 [DRSC06583]
- mitotic cells, replicate 1: 10
- activity call: inactive

yps [DRSC25035]
- mitotic cells, replicate 1: 18
- activity call: inactive

CG4404 [DRSC19897]
- mitotic cells, replicate 1: 15
- activity call: inactive

CG4404 [DRSC23956]
- mitotic cells, replicate 1: 5
- activity call: inactive

CG34149 [DRSC14537]
- mitotic cells, replicate 1: 2
- activity call: inactive

NdufV3 [DRSC19423]
- mitotic cells, replicate 1: 8
- activity call: inactive

NdufV3 [DRSC27236]
- mitotic cells, replicate 1: 4
- activity call: inactive

CG1275 [DRSC08294]
- mitotic cells, replicate 1: 10
- activity call: inactive

wry [DRSC00352]
- mitotic cells, replicate 1: 3
- activity call: inactive

wry [DRSC00456]
- mitotic cells, replicate 1: 6
- activity call: inactive

wry [DRSC22414]
- mitotic cells, replicate 1: 9
- activity call: inactive

tHMG1 [DRSC16181]
- mitotic cells, replicate 1: 10
- activity call: inactive

Paris [DRSC00451]
- mitotic cells, replicate 1: 3
- activity call: inactive

Paris [DRSC29550]
- mitotic cells, replicate 1: 6
- activity call: inactive

Quoted from the entries so far, 2 entries:
tHMG1 [DRSC16181]
- mitotic cells, replicate 1: 10
- activity call: inactive

Paris [DRSC00451]
- mitotic cells, replicate 1: 3
- activity call: inactive
